The values below come from the supplement of paper PMC10849652.

Protein sequences, listed by entry. Tags and fused reporters are not part of them. Lines headed by an entry give the natural chain unless they say otherwise; changes in a name come on top.
UniProt P04818: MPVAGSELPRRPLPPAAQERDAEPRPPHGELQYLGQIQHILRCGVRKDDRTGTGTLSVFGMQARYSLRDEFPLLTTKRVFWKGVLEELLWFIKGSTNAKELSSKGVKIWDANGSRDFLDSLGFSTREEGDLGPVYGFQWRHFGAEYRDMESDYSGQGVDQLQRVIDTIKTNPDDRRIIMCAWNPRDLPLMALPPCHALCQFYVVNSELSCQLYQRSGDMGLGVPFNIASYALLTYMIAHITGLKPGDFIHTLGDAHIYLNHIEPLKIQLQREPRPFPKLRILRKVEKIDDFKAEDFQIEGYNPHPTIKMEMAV
UniProt Q8NBP0: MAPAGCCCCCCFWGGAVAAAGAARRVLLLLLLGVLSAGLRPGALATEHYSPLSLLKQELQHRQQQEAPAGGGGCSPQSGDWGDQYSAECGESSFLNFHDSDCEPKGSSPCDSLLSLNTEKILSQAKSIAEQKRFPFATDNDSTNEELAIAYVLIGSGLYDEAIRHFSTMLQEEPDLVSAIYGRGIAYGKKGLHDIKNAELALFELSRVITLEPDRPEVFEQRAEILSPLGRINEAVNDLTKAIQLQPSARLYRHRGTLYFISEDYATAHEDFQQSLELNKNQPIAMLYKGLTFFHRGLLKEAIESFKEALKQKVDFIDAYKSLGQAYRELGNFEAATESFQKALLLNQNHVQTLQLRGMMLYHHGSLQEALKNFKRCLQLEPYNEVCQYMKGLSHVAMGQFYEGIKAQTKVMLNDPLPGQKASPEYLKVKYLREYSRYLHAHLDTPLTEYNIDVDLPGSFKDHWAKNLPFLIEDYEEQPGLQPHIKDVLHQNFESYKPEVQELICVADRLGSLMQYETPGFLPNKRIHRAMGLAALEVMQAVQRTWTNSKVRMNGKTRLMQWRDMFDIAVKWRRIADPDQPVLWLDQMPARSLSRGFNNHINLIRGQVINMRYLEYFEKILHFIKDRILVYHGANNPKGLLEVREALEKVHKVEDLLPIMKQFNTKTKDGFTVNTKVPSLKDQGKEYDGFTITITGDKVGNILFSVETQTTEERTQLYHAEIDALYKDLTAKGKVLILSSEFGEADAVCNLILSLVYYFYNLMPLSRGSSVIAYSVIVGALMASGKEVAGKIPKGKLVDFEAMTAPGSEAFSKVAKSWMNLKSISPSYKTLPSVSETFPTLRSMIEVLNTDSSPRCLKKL
UniProt Q13454: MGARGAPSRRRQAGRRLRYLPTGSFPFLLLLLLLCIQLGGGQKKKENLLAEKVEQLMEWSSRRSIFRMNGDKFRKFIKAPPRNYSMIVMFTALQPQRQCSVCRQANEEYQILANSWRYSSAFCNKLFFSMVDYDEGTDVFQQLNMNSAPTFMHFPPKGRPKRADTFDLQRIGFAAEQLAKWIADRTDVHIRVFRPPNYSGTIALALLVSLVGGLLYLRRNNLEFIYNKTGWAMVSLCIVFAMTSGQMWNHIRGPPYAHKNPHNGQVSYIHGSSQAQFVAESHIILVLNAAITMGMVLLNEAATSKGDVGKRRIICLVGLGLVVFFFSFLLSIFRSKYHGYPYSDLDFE
UniProt Q8N5M4: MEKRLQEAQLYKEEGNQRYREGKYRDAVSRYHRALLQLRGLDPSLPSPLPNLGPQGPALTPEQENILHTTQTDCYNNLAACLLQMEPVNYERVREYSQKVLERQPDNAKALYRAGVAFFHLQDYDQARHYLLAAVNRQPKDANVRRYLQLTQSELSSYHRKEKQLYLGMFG
UniProt Q9NNW7, whole entry, looked up: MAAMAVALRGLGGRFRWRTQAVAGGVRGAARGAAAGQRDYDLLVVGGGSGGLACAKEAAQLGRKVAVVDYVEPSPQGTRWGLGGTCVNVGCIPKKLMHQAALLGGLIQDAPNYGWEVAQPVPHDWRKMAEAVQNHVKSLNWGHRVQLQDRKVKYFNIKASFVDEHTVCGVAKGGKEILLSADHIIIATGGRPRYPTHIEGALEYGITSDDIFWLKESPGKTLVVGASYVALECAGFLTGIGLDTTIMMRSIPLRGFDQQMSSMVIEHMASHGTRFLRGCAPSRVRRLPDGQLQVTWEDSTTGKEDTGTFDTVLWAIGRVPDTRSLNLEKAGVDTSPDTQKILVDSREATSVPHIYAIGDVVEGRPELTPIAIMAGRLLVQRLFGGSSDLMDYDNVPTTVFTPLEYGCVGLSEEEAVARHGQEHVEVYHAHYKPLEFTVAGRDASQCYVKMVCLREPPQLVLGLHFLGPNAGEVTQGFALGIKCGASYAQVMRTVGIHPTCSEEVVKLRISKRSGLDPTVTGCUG
UniProt Q99614: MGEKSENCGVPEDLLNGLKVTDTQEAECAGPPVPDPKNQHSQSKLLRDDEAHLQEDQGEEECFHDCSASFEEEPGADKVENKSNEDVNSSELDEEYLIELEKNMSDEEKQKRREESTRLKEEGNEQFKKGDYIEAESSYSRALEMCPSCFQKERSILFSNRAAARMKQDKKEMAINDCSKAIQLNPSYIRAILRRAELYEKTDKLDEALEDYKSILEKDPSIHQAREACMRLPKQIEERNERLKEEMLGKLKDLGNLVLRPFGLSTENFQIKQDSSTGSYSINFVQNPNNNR
UniProt O14530: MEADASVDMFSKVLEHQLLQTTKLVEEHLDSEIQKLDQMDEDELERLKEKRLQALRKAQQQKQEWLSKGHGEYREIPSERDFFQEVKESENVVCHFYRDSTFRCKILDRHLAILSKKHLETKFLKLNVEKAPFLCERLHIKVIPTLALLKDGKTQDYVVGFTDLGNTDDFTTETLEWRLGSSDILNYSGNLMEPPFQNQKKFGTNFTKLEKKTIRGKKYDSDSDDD
UniProt P62256: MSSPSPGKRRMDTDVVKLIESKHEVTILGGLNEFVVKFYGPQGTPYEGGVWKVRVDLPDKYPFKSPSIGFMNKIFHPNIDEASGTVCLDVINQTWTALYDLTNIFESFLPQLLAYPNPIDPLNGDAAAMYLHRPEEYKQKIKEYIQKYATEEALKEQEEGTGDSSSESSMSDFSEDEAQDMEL
UniProt Q969E8: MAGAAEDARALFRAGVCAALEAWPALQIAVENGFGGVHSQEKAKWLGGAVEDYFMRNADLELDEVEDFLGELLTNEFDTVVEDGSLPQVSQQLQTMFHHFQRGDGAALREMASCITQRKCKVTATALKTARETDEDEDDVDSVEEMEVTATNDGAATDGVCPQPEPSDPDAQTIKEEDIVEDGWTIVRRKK
UniProt Q5JXB2: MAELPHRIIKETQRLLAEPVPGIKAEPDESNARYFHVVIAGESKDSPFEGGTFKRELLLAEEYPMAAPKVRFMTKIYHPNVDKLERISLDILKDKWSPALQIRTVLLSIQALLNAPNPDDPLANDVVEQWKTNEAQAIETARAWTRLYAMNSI
UniProt Q96J42: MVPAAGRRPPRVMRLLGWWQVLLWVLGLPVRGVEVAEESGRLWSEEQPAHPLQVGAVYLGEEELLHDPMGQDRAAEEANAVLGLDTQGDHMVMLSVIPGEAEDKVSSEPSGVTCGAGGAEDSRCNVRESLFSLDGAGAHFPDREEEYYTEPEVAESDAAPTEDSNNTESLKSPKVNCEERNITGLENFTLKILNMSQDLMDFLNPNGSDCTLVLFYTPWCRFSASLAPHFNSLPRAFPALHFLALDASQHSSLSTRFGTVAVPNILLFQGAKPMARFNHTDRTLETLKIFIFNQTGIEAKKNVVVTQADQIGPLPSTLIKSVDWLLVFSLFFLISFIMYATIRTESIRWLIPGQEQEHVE
UniProt P0DPH7, whole entry, looked up: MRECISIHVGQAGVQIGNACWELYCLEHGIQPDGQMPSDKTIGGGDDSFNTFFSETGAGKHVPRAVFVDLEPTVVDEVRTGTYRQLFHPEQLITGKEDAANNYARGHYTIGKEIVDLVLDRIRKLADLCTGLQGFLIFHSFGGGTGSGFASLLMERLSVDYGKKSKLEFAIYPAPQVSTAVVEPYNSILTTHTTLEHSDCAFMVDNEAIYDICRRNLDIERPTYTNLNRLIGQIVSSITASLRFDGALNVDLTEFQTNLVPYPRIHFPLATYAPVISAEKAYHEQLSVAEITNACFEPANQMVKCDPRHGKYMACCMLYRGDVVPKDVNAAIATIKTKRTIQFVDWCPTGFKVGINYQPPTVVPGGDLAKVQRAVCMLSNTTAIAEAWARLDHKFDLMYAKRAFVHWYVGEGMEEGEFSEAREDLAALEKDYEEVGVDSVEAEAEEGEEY
UniProt Q9GZX9: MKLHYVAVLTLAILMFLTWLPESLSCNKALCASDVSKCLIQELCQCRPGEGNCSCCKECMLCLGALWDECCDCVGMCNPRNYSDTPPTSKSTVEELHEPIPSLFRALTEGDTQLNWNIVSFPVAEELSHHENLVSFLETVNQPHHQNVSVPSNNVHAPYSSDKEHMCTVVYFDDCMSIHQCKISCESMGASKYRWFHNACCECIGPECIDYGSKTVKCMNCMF
UniProt P23258, whole entry, looked up: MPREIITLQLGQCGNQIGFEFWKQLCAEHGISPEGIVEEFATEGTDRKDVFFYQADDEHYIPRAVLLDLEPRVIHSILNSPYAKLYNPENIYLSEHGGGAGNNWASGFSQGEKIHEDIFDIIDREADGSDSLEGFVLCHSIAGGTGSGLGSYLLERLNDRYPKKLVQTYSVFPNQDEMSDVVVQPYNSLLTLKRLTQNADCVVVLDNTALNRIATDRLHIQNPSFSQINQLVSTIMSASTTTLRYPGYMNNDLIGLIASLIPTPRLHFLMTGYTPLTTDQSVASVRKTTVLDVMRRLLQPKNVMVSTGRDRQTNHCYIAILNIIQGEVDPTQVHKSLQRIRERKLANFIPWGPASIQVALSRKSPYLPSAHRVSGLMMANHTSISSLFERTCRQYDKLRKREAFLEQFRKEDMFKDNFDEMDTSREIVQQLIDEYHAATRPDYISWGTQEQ
UniProt Q9BQE3, whole entry, looked up: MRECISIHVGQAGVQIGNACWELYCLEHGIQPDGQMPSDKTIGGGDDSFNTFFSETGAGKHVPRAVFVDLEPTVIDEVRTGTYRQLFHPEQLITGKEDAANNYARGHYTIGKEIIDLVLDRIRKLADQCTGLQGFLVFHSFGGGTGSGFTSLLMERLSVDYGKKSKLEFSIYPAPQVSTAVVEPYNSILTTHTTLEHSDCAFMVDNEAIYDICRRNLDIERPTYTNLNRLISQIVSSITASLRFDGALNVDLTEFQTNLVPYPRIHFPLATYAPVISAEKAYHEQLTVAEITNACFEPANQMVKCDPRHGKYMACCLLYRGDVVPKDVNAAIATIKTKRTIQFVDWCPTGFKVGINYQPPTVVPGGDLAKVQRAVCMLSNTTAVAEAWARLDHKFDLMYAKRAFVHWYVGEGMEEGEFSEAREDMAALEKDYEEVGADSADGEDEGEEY
UniProt P49459, whole entry, looked up: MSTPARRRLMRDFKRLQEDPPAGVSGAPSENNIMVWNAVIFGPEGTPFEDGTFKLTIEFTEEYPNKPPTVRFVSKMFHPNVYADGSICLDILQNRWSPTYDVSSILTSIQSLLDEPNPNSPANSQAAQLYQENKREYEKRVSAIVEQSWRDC
UniProt P61088: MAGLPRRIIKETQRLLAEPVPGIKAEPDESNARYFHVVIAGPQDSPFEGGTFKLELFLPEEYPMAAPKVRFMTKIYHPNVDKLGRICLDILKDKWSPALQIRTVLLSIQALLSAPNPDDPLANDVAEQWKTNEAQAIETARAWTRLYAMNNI
UniProt Q16222: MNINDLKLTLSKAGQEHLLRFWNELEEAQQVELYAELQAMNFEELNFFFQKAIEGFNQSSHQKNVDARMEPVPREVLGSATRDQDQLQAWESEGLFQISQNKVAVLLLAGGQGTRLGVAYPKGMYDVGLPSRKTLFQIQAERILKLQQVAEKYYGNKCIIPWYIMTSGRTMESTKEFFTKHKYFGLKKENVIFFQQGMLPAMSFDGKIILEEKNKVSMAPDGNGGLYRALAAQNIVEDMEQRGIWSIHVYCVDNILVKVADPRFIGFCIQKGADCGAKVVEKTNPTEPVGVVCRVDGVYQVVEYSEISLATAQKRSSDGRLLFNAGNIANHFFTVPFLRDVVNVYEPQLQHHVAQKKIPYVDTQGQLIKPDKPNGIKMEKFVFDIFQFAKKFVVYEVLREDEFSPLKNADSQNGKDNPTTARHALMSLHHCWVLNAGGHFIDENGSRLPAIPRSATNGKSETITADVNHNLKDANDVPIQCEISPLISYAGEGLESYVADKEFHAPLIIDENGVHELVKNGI
UniProt Q9BUF5, whole entry, looked up: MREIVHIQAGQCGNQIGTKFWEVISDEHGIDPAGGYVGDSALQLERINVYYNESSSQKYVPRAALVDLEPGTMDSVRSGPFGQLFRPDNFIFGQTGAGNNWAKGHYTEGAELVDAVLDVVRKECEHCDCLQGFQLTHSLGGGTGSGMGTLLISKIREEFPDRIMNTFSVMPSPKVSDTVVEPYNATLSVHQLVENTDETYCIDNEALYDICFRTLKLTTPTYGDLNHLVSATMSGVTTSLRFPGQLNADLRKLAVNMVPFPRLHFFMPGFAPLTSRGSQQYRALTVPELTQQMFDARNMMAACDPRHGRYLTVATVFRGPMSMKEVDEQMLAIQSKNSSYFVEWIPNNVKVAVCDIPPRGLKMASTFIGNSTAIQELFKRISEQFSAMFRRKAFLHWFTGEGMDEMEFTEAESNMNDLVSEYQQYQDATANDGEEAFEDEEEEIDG

This is one part of the list.

Compound in this experiment: c1cn2cc(-c3ccc4cn[nH]c4c3)nc(Nc3ccc(N4CCOCC4)cc3)c2n1 [entospletinib]
Kind of experiment: log2 fold change, soluble protein after heating vs DMSO (PISA); higher = thermal stabilisation; K562 cells, 10 uM, 30 min; active = over 0.2 and 3.5 SD of the protein, either way, in both replicates (recomputed). The method, boiled down:
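K562 cells at 2×10^6 cells/mL were given 10 μM compound for 30 min. Aliquots then went through 3 min of heating across 48°C-58°C, were pooled, and were extracted in PBS with 0.5% NP-40 at 4°C, and the supernatant after 21,000xg for 90 min was quantified by TMTpro 16plex LC-MS/MS with channel sums equalised. Thermal stability relative to control samples, from duplicates, is given as log2 fold change.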

Consider TYMS (UniProt P04818), for which the log2 fold change was inactive: 0.023.

Consider TTC13 (UniProt Q8NBP0), for which the log2 fold change was inactive: -0.063.

Consider UBE2B (UniProt P63146), for which the log2 fold change was inactive: -0.032.

On to TUSC3 isoform 2 (UniProt Q13454), for which the log2 fold change is inactive: -0.042.

Consider TTC9C (UniProt Q8N5M4), for which the log2 fold change was inactive: 0.072.

For the target U2SURP (UniProt O15042), the log2 fold change is inactive: -0.041.

As to TXNRD2 (UniProt Q9NNW7), the log2 fold change was inactive: 0.031.

As to UAP1L1 (UniProt Q3KQV9), the log2 fold change was inactive: 0.034.

For the target TTC1 (UniProt Q99614), the log2 fold change is inactive: 0.036.

For the target TXNDC9 (UniProt O14530), the log2 fold change is inactive: 0.078.

Turning to UBE2H (UniProt P62256), the log2 fold change is inactive: -0.032.

As to TSR2 (UniProt Q969E8), the log2 fold change was inactive: -0.032.

On to TTC12 isoform 2 (UniProt Q9H892), for which the log2 fold change is inactive: 0.031.

As for UBE2NL (UniProt Q5JXB2), the log2 fold change is inactive: -0.062.

On to TTC37 (UniProt Q6PGP7), for which the log2 fold change is inactive: -0.034.

Turning to TXNDC15 (UniProt Q96J42), the log2 fold change is inactive: -0.011.

Take TUBA3C (UniProt P0DPH7): the log2 fold change was inactive: -0.029.

As to TWSG1 (UniProt Q9GZX9), the log2 fold change is inactive: -0.035.

In the case of UBE2L3 isoform 3 (UniProt P68036), the log2 fold change is inactive: 0.018.

As for TUBE1 (UniProt Q9UJT0), the log2 fold change was inactive: -0.007.

For TTPAL (UniProt Q9BTX7), the log2 fold change is inactive: 0.035.

Turning to TSPAN14 (UniProt Q8NG11), the log2 fold change is inactive: -0.037.

In the case of UBE3A (UniProt Q05086), the log2 fold change was inactive: 0.003.

Take TTL (UniProt Q8NG68): the log2 fold change is inactive: 0.117.

As for UBE2O (UniProt Q9C0C9), the log2 fold change is inactive: -0.018.

Consider TUBG1 (UniProt P23258), for which the log2 fold change is inactive: 0.02.

Take TUBA1C (UniProt Q9BQE3): the log2 fold change was inactive: 0.02.

With UBE2A (UniProt P49459), the log2 fold change was inactive: 0.077.

On to UBE2N (UniProt P61088), for which the log2 fold change was inactive: -0.02.

Turning to UAP1 (UniProt Q16222), the log2 fold change was inactive: 0.026.

Regarding TUBB6 (UniProt Q9BUF5), the log2 fold change was inactive: 0.019.

As for UBE2G1 (UniProt P62253), the log2 fold change was inactive: 0.02.

Turning to TTN isoform 12 (UniProt Q8WZ42), the log2 fold change was inactive: 0.114.

TTC27 (UniProt Q6P3X3): the log2 fold change was inactive: 0.175.
